# In US10202413B2, “Neuroactive enantiomeric 15-, 16- and 17-substituted steroids as modulators for GABA type-A receptors” (priority 2013, dated 2019):
# Experiments:
# [1] = system: picrotoxin binding site on GABAA receptors; assay: [35S]-TBPS displacement (inhibition of [35S]-TBPS binding); conditions: Hill coefficient; ± standard error of the mean
# Procedure: The IC50 values for the compounds of the examples as non-competitive displacers of [^35S]-TBPS from the picrotoxin binding site on GABAA receptors are reported in Table 1.
# Results presented are from duplicate experiments performed in triplicate. Error limits are calculated as standard error of the mean. Methods used are known in the art (see, e.g., Jiang, et al., Neurosteroid analogues. 9. Conformationally constrained pregnanes: structure-activity studies of 13,24-cyclo-18,21-dinorcholane analogues of the GABA modulatory and anesthetic steroids (3α,5α)- and (3α,5β)-3-hydroxypregnan-20-one. J. Med. Chem. 2003, 46, 5334-5348).
# Tadpole = Tadpole loss of righting (LRR) and loss of swimming (LSR) reflexes; format: in vivo; conditions: ± SEM; for Tadpole LRR nHill: loss of righting reflex; for Tadpole LSR nHill: loss of swimming reflex
# From the text: Table 3 discloses the anesthetic effects of the compounds of the present disclosure. In particular, the anesthetic effect of the compounds of the present disclosure on Loss of Righting Reflex (LRR) and Loss of Swimming Reflex (LSR).
# Methods used are known in the art (see, e.g., Jiang, et al., Neurosteroid analogues. 9. Conformationally constrained pregnanes: structure-activity studies of 13,24-cyclo-18,21-dinorcholane analogues of the GABA modulatory and anesthetic steroids (3α,5α)- and (3α,5β)-3-hydroxypregnan-20-one. J. Med. Chem. 2003, 46, 5334-5348). Error limits are calculated as standard error of the mean (N=10 or more animals at each of five or more different concentrations).
Structure (SMILES),"nHill, inhibition of [35S]-TBPS binding [1]",Tadpole LRR nHill (Tadpole),Tadpole LSR nHill (Tadpole)
"CO[C@H]1[C@H]2CC[C@H]3[C@@H](CC[C@@]4(C)C(=O)CC[C@H]34)[C@]2(C)CC[C@@H]1O [KK-117, (3β,4α,5β,8α,9β,10α,13α,14β)-3-Hydroxy-4-methoxyandrostan-17-one]",0.98 ± 0.11,−1.84 ± 0.32,−20 ± 0.6
C[C@@]12CC[C@H](O)C[C@H]1CC[C@@H]1[C@H]3CC(=O)C[C@@H]3CC[C@H]12 [KK-114],1.06 ± 0.14,−4.32 ± 11.8,–
C[C@@]12CC[C@H]3[C@@H]4CC[C@H](O)C[C@H]4CC[C@@H]3[C@H]1CC(=O)C2 [KK-103],0.86 ± 0.06,−4.04 ± 4.06,−33 ± 0.1
"C[C@@]12CC[C@H](O)C[C@@H]1CC[C@H]1[C@H]2CC[C@@]2(C)C=C(C#N)C[C@H]12 [KK-136, (3β,5α,8α,9β,10α,13α,14β)-3-Hydroxyandrost-16-ene-16-carbonitrile]",1.01 ± 0.07,−2.32 ± 0.12,−36 ± 0.1
C[C@@]12CC[C@H]3[C@@H]4CC[C@H](O)C[C@@H]4CC[C@@H]3[C@H]1CC(=O)C2 [KK-102],0.98 ± 0.11,−4.29 ± 6.63,−33 ± 0.1
"C[C@@]12CC[C@H](O)C[C@H]1CC[C@H]1[C@H]2CC[C@@]2(C)C=C(C#N)C[C@H]12 [KK-141, (3β,5β,8α,9β,10α,13α,14β)-3-Hydroxyandrost-16-ene-16-carbonitrile]",1.10 ± 0.13,–,–
"C[C@@]12CC[C@H]3[C@@H]4CC[C@H](O)C[C@H]4CC[C@@H]3[C@H]1CCC2=O [KK-18, (3β,5β,8α,9β,10α,13α,14β)-3-Hydroxyestran-17-one]",1.31 ± 0.22,−1.98 ± 2.03,–
"C[C@@]12CC[C@@H]3[C@H](CC[C@@H]4C[C@@H](O)CC[C@]43C)[C@H]1CC(=CC#N)C2 [KK-138, 2-[(3β,5β,8α,9β,10α,13α,14β)-3-Hydroxyandrostan-16-ylidene]-acetonitrile]",1.00 ± 0.08,−1.94 ± 0.08,−20 ± 0.0
"C[C@@]12CC[C@@H]3[C@H](CC[C@@H]4C[C@@H](O)CC[C@]43C)[C@H]1CC(=O)C2 [MQ-35, (3β,5β,8α,9β,10α,13α,14β)-3-Hydroxyandrostan-16-one]",0.92 ± 0.07,−2.90 ± 0.1,−36 ± 0.1
"C[C@@]12CC[C@@H]3[C@H](CC[C@H]4C[C@@H](O)CC[C@]43C)[C@H]1CC(=O)C2 [KK-97, (3β,5α,8α,9β,10α,13α,14β)-3-Hydroxyandrostan-16-one]",0.94 ± 0.05,−1.35 ± 0.31,−36 ± 0.1
"C[C@@]12CC[C@@H]3[C@H](CC[C@H]4C[C@@H](O)CC[C@]43C)[C@H]1C[C@@H](C#N)C2 [KK-137, (3β,5α,8α,9β,10α,13α,14β,16α)-3-Hydroxyandrost-16-carbonitrile]",0.86 ± 0.09,−2.13 ± 0.07,−33 ± 0.1
"CO[C@H]1CC[C@]2(C)CC[C@@H]3[C@H](CC[C@@H]4C[C@@H](O)CC[C@]43C)[C@@H]12 [MQ-117, (3β,5β,8α,9β,10α,13α,14β,15α)-15-Methxoyandrostan-3-ol]",0.54 ± 0.08,−1.94 ± 0.12,−19 ± 0.5
"CO[C@@H]1C[C@@H]2[C@H]3CC[C@@H]4C[C@@H](O)CC[C@@]4(C)[C@@H]3CC[C@@]2(C)C1 [KK-134, (3β,5β,8α,9β,10α,13α,14β,16α)-16-Methoxyandrostan-3-ol]",0.89 ± 0.07,–,–
"C[C@]1(O)CC[C@]2(C)[C@@H](CC[C@H]3[C@H]2CC[C@@]2(C)C(=O)CC[C@H]32)C1 [KK-26, (3β,5α,8α,9β,10α,13α,14β)-3-Hydroxy-3-methylandrostan-17-one]",1.15 ± 0.13,−4.68 ± 0.01,−33 ± 0.2
"C[C@@]12CC[C@@H]3[C@H](CC[C@@H]4C[C@@H](O)CC[C@]43C)[C@H]1C[C@@H](C#N)C2 [KK-142, (3β,5β,8α,9β,10α,13α,14β,16α)-3-Hydroxyandrost-16-carbonitrile]",0.81 ± 0.05,–,–
"CO[C@H]1[C@H]2CC[C@@H]3[C@H]4CC(=O)C[C@]4(C)CC[C@H]3[C@]2(C)CC[C@@H]1O [KK-122, (3β,4α,5β,8α,9β,10α,3α,14β)-3-Hydroxy-4-methoxyandrostan-16-one]",1.15 ± 0.15,−2.75 ± 1.13,−36 ± 0.1
"CC(=O)[C@@H]1C[C@@H]2[C@H]3CC[C@@H]4C[C@@H](O)CC[C@@]4(C)[C@@H]3CC[C@@]2(C)C1 [KK-135, (3β,5β,8α,9β,10α,13α,14β,16α)-16-Acetylandrostan-3-ol]",1.05 ± 0.06,–,–
"C[C@@]12CC[C@@H]3[C@H](CC(=O)[C@@H]4C[C@@H](O)CC[C@@]34C)[C@H]1CC(=O)C2 [MQ-124, (3β,5β,8α,9β,10α,13α,14β)-3-Hydroxyandrostane-6,16-dione]",1.02 ± 0.10,–,–
"C[C@]1(O)CC[C@]2(C)[C@H](CC[C@H]3[C@H]2CC[C@@]2(C)C(=O)CC[C@H]32)C1 [KK-23, (3β,5β,8α,9β,10α,13α,14β)-3-Hydroxy-3-methylandrostan-17-one]",0.94 ± 0.12,−1.39 ± 0.86,−21 ± 0.5
"CO[C@@H]1C[C@@H]2[C@H]3C[C@H](OC)[C@@H]4C[C@@H](O)CC[C@@]4(C)[C@@H]3CC[C@@]2(C)C1 [MQ-125, (3β,5β,6α,8α,9β,10α,13α,14β,16α)-6,16-Dimethoxyandrostan3-ol]",0.95 ± 0.07,–,–
